Source: publication PMC1523230, “Structural Organization of the 19S Proteasome Lid: Insights from MS of Intact Complexes” (PLoS Biology, 2006)
No constants are given. Whether binding was seen depends on the method and setting. In cells and extracts the contact can be indirect. Here binding means that the protein was enriched with, or labelled near, the bait; the list need not be complete.

T1: Rpn11^H12 (S. cerevisiae), P43588
T1 chain: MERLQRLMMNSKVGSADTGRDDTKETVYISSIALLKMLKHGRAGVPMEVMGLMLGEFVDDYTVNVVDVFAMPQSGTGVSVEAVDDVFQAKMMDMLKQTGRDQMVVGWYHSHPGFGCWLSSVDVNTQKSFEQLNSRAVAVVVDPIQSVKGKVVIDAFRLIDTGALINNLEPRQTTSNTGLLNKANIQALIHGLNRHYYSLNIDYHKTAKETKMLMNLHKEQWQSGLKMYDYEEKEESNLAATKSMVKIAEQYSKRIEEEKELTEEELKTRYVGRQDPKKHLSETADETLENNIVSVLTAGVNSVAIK

B1: Rpn6, Q12377 1-434 (protein)
chain: MSLPGSKLEEARRLVNEKQYNEAEQVYLSLLDKDSSQSSAAAGASVDDKRRNEQETSILELGQLYVTMGAKDKLREFIPHSTEYMMQFAKSKTVKVLKTLIEKFEQVPDSLDDQIFVCEKSIEFAKREKRVFLKHSLSIKLATLHYQKKQYKDSLALINDLLREFKKLDDKPSLVDVHLLESKVYHKLRNLAKSKASLTAARTAANSIYCPTQTVAELDLMSGILHCEDKDYKTAFSYFFESFESYHNLTTHNSYEKACQVLKYMLLSKIMLNLIDDVKNILNAKYTKETYQSRGIDAMKAVAEAYNNRSLLDFNTALKQYEKELMGDELTRSHFNALYDTLLESNLCKIIEPFECVEISHISKIIGLDTQQVEGKLSQMILDKIFYGVLDQGNGWLYVYETPNQDATYDSALELVGQLNKVVDQLFEKASVLY
B2: Rpn9, Q04062 1-393 (protein)
chain: MFNNHEIDTILSTLRMEADPSLHPLFEQFEKFYEEKLWFQLSESLTKFFDDAKSTPLRLRLYDNFVSKFYDKINQLSVVKYLLASLKDSKDFDESLKYLDDLKAQFQELDSKKQRNNGSKDHGDGILLIDSEIARTYLLKNDLVKARDLLDDLEKTLDKKDSIPLRITNSFYSTNSQYFKFKNDFNSFYYTSLLYLSTLEPSTSITLAERQQLAYDLSISALLGDKIYNFGELLHHPIMETIVNDSNYDWLFQLLNALTVGDFDKFDSLIKVQISKIPILAQHESFLRQKICLMTLIETVFVKNIRMLSFEDISKATHLPKDNVEHLVMRAISLGLLKGSIDQVNELVTISWVQPRIISGDQITKMKDRLVEWNDQVEKLGKKMEARGQSIWV
B3: Rpn12, P32496 1-274 (protein)
chain: MPSLAELTKSLSIAFENGDYAACEKLLPPIKIELIKNNLLIPDLSIQNDIYLNDLMITKRILEVGALASIQTFNFDSFENYFNQLKPYYFSNNHKLSESDKKSKLISLYLLNLLSQNNTTKFHSELQYLDKHIKNLEDDSLLSYPIKLDRWLMEGSYQKAWDLLQSGSQNISEFDSFTDILKSAIRDEIAKNTELSYDFLPLSNIKALLFFNNEKETEKFALERNWPIVNSKVYFNNQSKEKADYEDEMMHEEDQKTNIIEKAMDYAISIENIV

Target: T1, Rpn11^H12 (S. cerevisiae), P43588
Test: affinity purification with mass spectrometry; Rpn11^H12 held on Ni-NTA from yeast lysate, gel filtration; subunits identified by MALDI-TOF/TOF peptide mapping and database search
Conditions: remark: other sources report otherwise

binding, binds:
B1
B2
B3
